According to PubChem BioAssay AID330 (DTP/NCI, 2004):
The list shows only some results of the screen, not a fair sample: it covers a few groups of compounds. Other doses and runs of a compound may be missing. T/C gives the treated animals as a percentage of the vehicle group. Some doses have a count of surviving animals in place of a T/C: the source holds a T/C of zero for them, seemingly a mark for toxic or unscored doses. Counts of survivors are from the toxicity check (mostly the fifth day) where no day follows; animals may have died later. Schedules are NCI's codes, read here as Q, the interval in days (D) or hours (H), X, the number of doses. Where survival is the endpoint, this PubChem deposit counts one and a half times the control or more as active, and values a quarter to a half above the control carry no call in these data; other NCI protocols may use other cut-offs. Some entries were tested several times; the values are given in rising order. Some T/C values are marked as having no survivor count here; that says nothing about deaths at the dose. Some T/C values are followed by the survivors on the day toxicity was checked, most often the fifth; where neither a count nor a note follows, no animal had died by that day.

System: P388 leukemia ip, CD2F1 mice, survival T/C
Assay: NCI In Vivo Anticancer Drug Screen. Data for tumor model P388 Leukemia (intraperitoneal) in CD2F1 (CDF1) mice
Conditions: T/C endpoint: median survival time, higher T/C = longer survival
[1] = dose: 25.0 mg/kg/injection, schedule: Q01DX009 (ip), vehicle: saline with Tween-80
[2] = dose: 50.0 mg/kg/injection, schedule: Q01DX009 (ip), vehicle: saline with Tween-80
[3] = dose: 100.0 mg/kg/injection, schedule: Q04DX003 (ip), vehicle: saline with Tween-80
[4] = dose: 200.0 mg/kg/injection, schedule: Q04DX003 (ip), vehicle: saline with Tween-80
[5] = dose: 400.0 mg/kg/injection, schedule: Q04DX003 (ip), vehicle: saline with Tween-80
[6] = dose: 12.5 mg/kg/injection, schedule: Q01DX009 (ip), vehicle: saline with Tween-80
[7] = dose: 12.5 mg/kg/injection, schedule: Q01DX009 (ip), vehicle: Klucel (hydroxypropylcellulose) (HPC)
[8] = dose: 25.0 mg/kg/injection, schedule: Q01DX009 (ip), vehicle: Klucel (hydroxypropylcellulose) (HPC)
[9] = dose: 50.0 mg/kg/injection, schedule: Q01DX009 (ip), vehicle: Klucel (hydroxypropylcellulose) (HPC)
[10] = dose: 100.0 mg/kg/injection, schedule: Q01DX009 (ip), vehicle: Klucel (hydroxypropylcellulose) (HPC)

C/C(CCl)=N\NC1=NC(C)(CCl)P(=O)(Nc2ncn[nH]2)S1 (centres undefined)
T/C (dose: 60.0 mg/kg/injection, schedule: Q01DX005 (ip), vehicle: saline): 95 % of control | T/C (dose: 120.0 mg/kg/injection, schedule: Q01DX005 (ip), vehicle: saline): 103 % of control | survivor count (dose: 240.0 mg/kg/injection, schedule: Q01DX005 (ip), vehicle: saline): 0 of 6

C1CCC(NC2CCCCC2)CC1.CC(C)(Oc1ccc(N(CCCl)CCCl)cc1)C(=O)O
T/C (dose: 33.0 mg/kg/injection, schedule: Q04DX003 (ip), vehicle: Klucel (hydroxypropylcellulose) (HPC)): 122 % of control | T/C (dose: 50.0 mg/kg/injection, schedule: Q04DX003 (ip), vehicle: Klucel (hydroxypropylcellulose) (HPC)): 186 % of control | T/C (dose: 75.0 mg/kg/injection, schedule: Q04DX003 (ip), vehicle: Klucel (hydroxypropylcellulose) (HPC)): 195 % of control [5 of 6 alive]

CC(=O)C1=CCCC2CCC1N2 (centres undefined)
T/C (dose: 50.0 micrograms/kg/injection, schedule: Q01DX009 (ip), vehicle: saline + alcohol): 97 % of control | T/C (dose: 100.0 micrograms/kg/injection, schedule: Q01DX009 (ip), vehicle: saline + alcohol): 100 % of control | T/C (dose: 200.0 micrograms/kg/injection, schedule: Q01DX009 (ip), vehicle: saline + alcohol): 101 % of control | T/C (dose: 400.0 micrograms/kg/injection, schedule: Q01DX009 (ip), vehicle: saline + alcohol): 101 % of control

S=P(N(CCCl)CCCl)(n1ccnc1)n1ccnc1
T/C (dose: 12.5 mg/kg/injection, schedule: Q01DX001 (ip), vehicle: Klucel (hydroxypropylcellulose) (HPC)): 99 % of control | T/C (dose: 25.0 mg/kg/injection, schedule: Q01DX001 (ip), vehicle: Klucel (hydroxypropylcellulose) (HPC)): 104 % of control | T/C (dose: 50.0 mg/kg/injection, schedule: Q01DX001 (ip), vehicle: Klucel (hydroxypropylcellulose) (HPC)): 101 % of control

COP(C)(=O)O.[Eu]
T/C [1]: 96 % of control [survivor count not shown] | T/C [2]: 91 % of control [survivor count not shown] | T/C (dose: 100.0 mg/kg/injection, schedule: Q04DX002 (ip), vehicle: saline): 94 % of control [survivor count not shown] | T/C (dose: 200.0 mg/kg/injection, schedule: Q01DX009 (ip), vehicle: saline with Tween-80): 88 % of control [survivor count not shown] | T/C (dose: 200.0 mg/kg/injection, schedule: Q04DX002 (ip), vehicle: saline): 101 % of control [survivor count not shown] | T/C (dose: 400.0 mg/kg/injection, schedule: Q04DX002 (ip), vehicle: saline): 106 % of control [survivor count not shown]

CCOC(=O)COc1cccc(N(CCCl)CCCl)c1
T/C (dose: 12.5 mg/kg/injection, schedule: Q04DX003 (ip), vehicle: saline with Tween-80): 100 % of control | T/C (dose: 22.0 mg/kg/injection, schedule: Q01DX009 (ip), vehicle: other): 144 % of control | T/C (dose: 25.0 mg/kg/injection, schedule: Q04DX003 (ip), vehicle: saline with Tween-80): 100 % of control | T/C (dose: 33.0 mg/kg/injection, schedule: Q01DX009 (ip), vehicle: other): 161 % of control | T/C (dose: 50.0 mg/kg/injection, schedule: Q01DX009 (ip), vehicle: other): 161 % of control | T/C (dose: 50.0 mg/kg/injection, schedule: Q04DX003 (ip), vehicle: saline with Tween-80): 113 % of control | T/C (dose: 66.0 mg/kg/injection, schedule: Q04DX003 (ip), vehicle: saline with Tween-80): 109 % of control | T/C (dose: 75.0 mg/kg/injection, schedule: Q01DX009 (ip), vehicle: other): 177 % of control | T/C [3]: 136 % of control | T/C (dose: 150.0 mg/kg/injection, schedule: Q04DX003 (ip), vehicle: saline with Tween-80): 150 % of control [5 of 6 alive]

CC1=CC(C)(C)P(=O)(Cl)O1 (centres undefined)
T/C [3]: 90 % of control | T/C [4]: 109 % of control | T/C [5]: 95 % of control

O=C1C(O)=C([N+](=O)[O-])C(=O)C(O)=C1[N+](=O)[O-]
T/C (dose: 6.25 mg/kg/injection, schedule: Q01DX005 (ip), vehicle: suspension in saline): 96 % of control | T/C (dose: 12.5 mg/kg/injection, schedule: Q01DX005 (ip), vehicle: suspension in saline): 97 % of control | T/C (dose: 25.0 mg/kg/injection, schedule: Q01DX005 (ip), vehicle: suspension in saline): 103 % of control | T/C (dose: 50.0 mg/kg/injection, schedule: Q01DX005 (ip), vehicle: suspension in saline): 104 % of control | survivor count (dose: 100.0 mg/kg/injection, schedule: Q01DX005 (ip), vehicle: suspension in saline): 1 of 5 | survivor count (dose: 200.0 mg/kg/injection, schedule: Q01DX005 (ip), vehicle: suspension in saline): 0 of 5

CC1=NP(=O)(c2ccccc2)N=C(C)N1
T/C (dose: 50.0 mg/kg/injection, schedule: Q01DX005 (ip), vehicle: Klucel (hydroxypropylcellulose) (HPC)): 97 % of control | T/C (dose: 100.0 mg/kg/injection, schedule: Q01DX005 (ip), vehicle: Klucel (hydroxypropylcellulose) (HPC)): 97 % of control | T/C (dose: 200.0 mg/kg/injection, schedule: Q01DX005 (ip), vehicle: Klucel (hydroxypropylcellulose) (HPC)): 92 % of control

CC(C)OP(C)(=O)O.[Tb]
T/C [3]: 97 % of control [survivor count not shown] | T/C [4]: 100 % of control [survivor count not shown] | T/C [5]: 100 % of control [survivor count not shown]

CC(C)OP(C)(=O)O.[Ce]
T/C [6]: 99 % of control [survivor count not shown] | T/C [1]: 92 % of control [survivor count not shown] | T/C [2]: 89 % of control [survivor count not shown] | T/C (dose: 100.0 mg/kg/injection, schedule: Q01DX009 (ip), vehicle: saline with Tween-80): 104 % of control [survivor count not shown]

O=C(OCC(F)([N+](=O)[O-])[N+](=O)[O-])OCC(F)([N+](=O)[O-])[N+](=O)[O-]
T/C (dose: 100.0 mg/kg/injection, schedule: Q01DX009 (ip), vehicle: saline): 108 % of control | T/C (dose: 200.0 mg/kg/injection, schedule: Q01DX009 (ip), vehicle: saline): 117 % of control | T/C (dose: 400.0 mg/kg/injection, schedule: Q01DX009 (ip), vehicle: saline): 117 % of control

O=C1NC(=O)C(c2cccc(N(CCCl)CCCl)c2)N1 (centres undefined)
T/C (dose: 6.25 mg/kg/injection, schedule: Q01DX009 (ip), vehicle: Klucel (hydroxypropylcellulose) (HPC)): 108 % of control | T/C [7]: 107 % of control | T/C [8]: 104 % of control | T/C [9]: 108 % of control | T/C [10]: 97 % of control

ICCN(CCI)c1ccccc1-c1ccccc1
T/C [7]: 118 % of control [5 of 6 alive] | T/C [8]: 120 % of control [5 of 6 alive] | T/C [9]: 145 % of control | T/C [10]: 142 % of control | T/C (dose: 200.0 mg/kg/injection, schedule: Q01DX009 (ip), vehicle: Klucel (hydroxypropylcellulose) (HPC)): 160 % of control

CN(C)c1ccc(CN2CCCN(Cc3ccc(N(C)C)cc3)P2(=O)Cl)cc1
T/C (dose: 25.0 mg/kg/injection, schedule: Q01DX005 (ip), vehicle: saline): 101 % of control | T/C (dose: 50.0 mg/kg/injection, schedule: Q01DX005 (ip), vehicle: saline): 103 % of control | T/C (dose: 100.0 mg/kg/injection, schedule: Q01DX005 (ip), vehicle: saline): 104 % of control | T/C (dose: 200.0 mg/kg/injection, schedule: Q01DX005 (ip), vehicle: saline): 101 % of control

CCOP(=O)(/N=C(\Nc1ccccc1)c1ccccc1)OCC
T/C (dose: 6.25 mg/kg/injection, schedule: Q01DX009 (ip), vehicle: distilled water + Tween-80): 105 % of control | T/C (dose: 6.25 mg/kg/injection, schedule: Q01DX009 (ip), vehicle: saline with Tween-80): 98 % of control | T/C (dose: 12.5 mg/kg/injection, schedule: Q01DX009 (ip), vehicle: distilled water + Tween-80): 104 and 111 % of control | T/C [6]: 96 % of control | T/C (dose: 25.0 mg/kg/injection, schedule: Q01DX009 (ip), vehicle: distilled water + Tween-80): 97 and 122 % of control | T/C [1]: 92 % of control | T/C (dose: 50.0 mg/kg/injection, schedule: Q01DX009 (ip), vehicle: distilled water + Tween-80): 107 and 111 % of control | T/C [2]: 101 % of control | T/C (dose: 100.0 mg/kg/injection, schedule: Q01DX009 (ip), vehicle: distilled water + Tween-80): 99 % of control
